We go through 6 molecules from article PMC6394298.

By UniProt entry, the sequences of proteins in these tests, tags left out. Where a name states a change or a piece, a line headed by the entry shows the natural chain unless it says otherwise. Chains listed by the source or under a name are the forms on record and can include a tag or linker.
His6-tagged wild-type paxillin (mouse paxillin-α) (Q8VI36, form named): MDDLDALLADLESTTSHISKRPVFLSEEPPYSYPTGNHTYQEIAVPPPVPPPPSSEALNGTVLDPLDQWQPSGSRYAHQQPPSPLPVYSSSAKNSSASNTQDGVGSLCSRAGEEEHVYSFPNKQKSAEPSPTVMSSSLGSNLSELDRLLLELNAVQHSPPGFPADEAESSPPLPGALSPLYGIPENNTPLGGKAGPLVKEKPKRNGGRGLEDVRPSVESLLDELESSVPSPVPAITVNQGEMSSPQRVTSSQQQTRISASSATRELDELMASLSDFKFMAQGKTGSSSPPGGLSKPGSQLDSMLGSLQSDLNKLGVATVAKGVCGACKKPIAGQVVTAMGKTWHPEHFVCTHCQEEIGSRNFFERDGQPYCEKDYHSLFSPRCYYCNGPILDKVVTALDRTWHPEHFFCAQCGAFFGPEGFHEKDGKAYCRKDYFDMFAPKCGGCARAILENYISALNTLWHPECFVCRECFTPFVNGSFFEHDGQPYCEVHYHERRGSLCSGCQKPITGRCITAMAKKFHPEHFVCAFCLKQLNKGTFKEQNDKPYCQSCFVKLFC
UniProt Q6NV83: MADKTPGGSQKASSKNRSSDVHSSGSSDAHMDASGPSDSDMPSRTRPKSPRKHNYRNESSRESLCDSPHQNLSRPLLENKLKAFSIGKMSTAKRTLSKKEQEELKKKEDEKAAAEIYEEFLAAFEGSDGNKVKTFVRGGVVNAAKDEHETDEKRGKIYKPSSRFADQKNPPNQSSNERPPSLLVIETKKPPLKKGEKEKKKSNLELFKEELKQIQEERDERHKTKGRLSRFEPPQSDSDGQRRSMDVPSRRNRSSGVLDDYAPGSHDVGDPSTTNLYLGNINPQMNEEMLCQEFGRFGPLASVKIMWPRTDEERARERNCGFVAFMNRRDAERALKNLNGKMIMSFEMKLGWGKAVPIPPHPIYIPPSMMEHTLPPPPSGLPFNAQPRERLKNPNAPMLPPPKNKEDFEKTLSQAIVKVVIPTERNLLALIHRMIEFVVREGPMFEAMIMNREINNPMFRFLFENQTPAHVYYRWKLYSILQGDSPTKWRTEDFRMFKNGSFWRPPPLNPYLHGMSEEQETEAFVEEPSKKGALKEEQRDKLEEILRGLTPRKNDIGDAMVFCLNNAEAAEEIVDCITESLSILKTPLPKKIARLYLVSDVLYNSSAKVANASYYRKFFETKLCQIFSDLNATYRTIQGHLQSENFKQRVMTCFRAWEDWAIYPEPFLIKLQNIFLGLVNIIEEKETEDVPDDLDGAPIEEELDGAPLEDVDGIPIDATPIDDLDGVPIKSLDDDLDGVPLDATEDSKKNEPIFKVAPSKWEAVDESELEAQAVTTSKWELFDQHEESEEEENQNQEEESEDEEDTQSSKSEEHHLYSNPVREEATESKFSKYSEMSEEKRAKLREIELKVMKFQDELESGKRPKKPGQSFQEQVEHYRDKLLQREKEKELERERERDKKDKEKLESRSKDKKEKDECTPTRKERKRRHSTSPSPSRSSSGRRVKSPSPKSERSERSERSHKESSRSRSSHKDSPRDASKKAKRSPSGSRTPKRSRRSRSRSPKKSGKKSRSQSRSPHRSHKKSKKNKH
UniProt Q62441: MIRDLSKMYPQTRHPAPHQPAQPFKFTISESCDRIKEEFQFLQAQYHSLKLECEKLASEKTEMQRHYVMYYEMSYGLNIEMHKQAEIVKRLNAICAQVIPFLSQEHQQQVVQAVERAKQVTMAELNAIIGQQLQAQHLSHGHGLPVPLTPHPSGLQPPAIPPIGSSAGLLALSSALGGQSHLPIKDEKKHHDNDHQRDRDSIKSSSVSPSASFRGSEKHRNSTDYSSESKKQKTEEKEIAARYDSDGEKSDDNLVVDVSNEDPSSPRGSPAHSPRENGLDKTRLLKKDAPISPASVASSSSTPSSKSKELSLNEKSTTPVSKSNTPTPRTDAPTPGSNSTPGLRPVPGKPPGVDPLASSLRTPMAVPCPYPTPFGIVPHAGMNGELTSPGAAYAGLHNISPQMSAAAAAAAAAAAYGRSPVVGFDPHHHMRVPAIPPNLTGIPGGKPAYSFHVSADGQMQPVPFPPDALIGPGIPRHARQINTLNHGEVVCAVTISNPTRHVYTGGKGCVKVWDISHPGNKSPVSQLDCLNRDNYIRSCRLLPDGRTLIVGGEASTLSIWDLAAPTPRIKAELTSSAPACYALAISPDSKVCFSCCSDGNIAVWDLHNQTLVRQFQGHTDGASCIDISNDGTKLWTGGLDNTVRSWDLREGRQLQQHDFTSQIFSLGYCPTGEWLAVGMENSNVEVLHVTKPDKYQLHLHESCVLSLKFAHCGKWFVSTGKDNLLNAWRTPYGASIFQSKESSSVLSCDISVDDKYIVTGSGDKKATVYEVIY

Results are given in words; binding and its absence hold for the method and conditions named. Binding seen in cells or lysates may run through a third protein. Here binding means that the protein was enriched with, or labelled near, the bait; the list need not be complete.

For the assay, the target named is His6-tagged wild-type paxillin (mouse paxillin-α) (mouse) (UniProt Q8VI36). Briefly: affinity purification with mass spectrometry; His6-tagged wild-type paxillin pulled down from Ba/F3 lysate (1 mg protein) with Ni-NTA beads, 30 min at 4°C; lysis buffer 20 mM imidazole-HCl pH 7.4, 130 mM NaCl, 0.05% Tween-20; one wash with 2 M urea; eluted with 150 mM imidazole; 8% SDS-PAGE, silver stain, bands of two regions cut out, LC-MS; mock-transfected cells as control.

Regarding “U2-associated protein SR140 (from UniProt Q6NV83 1-1029)”, the binding result is on record as “binds”. For “MKIAA1261 protein (Transducin-like enhancer protein 4) (from UniProt Q62441 1-773)” the value was “binds”.

B1: Alpha-Pix (protein, UniProt Q8K4I3 1-771)
chain: MNPEERLVTWLISLGVLESPKKTVCDPEEFLKSSLKNGVVLCKLINRLLPGSVEKYCLEPQTEADCIDNINDFLKGCATLQVEVFEPDDLYSGANFSKVLNTLLAVNKATEDQLSERPCGRSSSLSAATSSQTNPQVAVPSTAPEQHSEEKAEMTENGSHQLIVKARFNFKQTNEDELSVCKGDIIYVTRVEEGGWWEGTLNGRTGWFPSNYVREIKPSERPLSPKAIKGFDTAPLTKNYYTVVLQNILDTEKEYAKELQSLLVTYLRPLQSNNNLSTVEFTCLLGNFEEVCTFQQTLCQALEECSKFPENQHKVGGCLLNLMPHFKSMYLAYCANHPSAVNVLTQHSDDLERFMENQGASSPGILILTTSLSKPFMRLEKYVTLLQELERHMEDTHPDHQDILKAIIAFKTLMGQCQDLRKRKQLELQILSEPIQAWEGDDIKTLGNVIFMSQVVMQHGACEEKEERYFLLFSSVLIMLSASPRMSGFMYQGKIPIAGMVVNRLDEIEGSDCMFEITGSTVERIVVHCNNNQDFQEWMEQLNRLTKGPTSCGSLSKTSSSSCSTHSSFSSTGQPRGPLEPPQIIKPWSLSCLRPAPPLRPSAALGYKERMSYILKESSKSPKTMKKFLHKRKTERKASEEEYVIRKSTAALEEDAQILKVIEAYCTSASFQQGTRKDSVPQVLLPEEEKLIIEETRSNGQTIIEEKSLVDTVYALKDEVKELKQENKKMKQCLEEELKSRKDLEKLVRKLLKQTDECIRSESSSKTSILQ
B1: the binding result is “binds”.

B2: ARF GTPase-activating protein GIT2 (accession Q9JLQ2) (protein, UniProt Q9JLQ2 1-708)
chain: MSKRLRSSDVCADCNGPDPSWASVNRGTFICDECCSVHRSLGRHISQVRHLKHTAWPPTLLQMVETLYNNGANSIWEHSLLDPASIMSGRRKANPQDKVHPNKAEFIRAKYQMLAFVHRLPCREDDSVTAKDLSKQLHSSVRTGNLETCLRLLSLGAQANFFHPEKGSTPLHVASKAGQILQAELLAVYGADPGTQDSSGKTPVDYARQGGHHELAERLIEIQYELTDRLAFYLCGRKPDHKSGQHFLIPQRADSLDLSELAKAAKKKLQSLSNHLFEELAMDVYDEVDRRETDAVWLATQNHSTLVTETTVVPFLPVNPEYSSTRNQGRQKLARFNAHEFATLVIDILSDAKRRQQGSPLSRSKDNVELILRTVSTQHSTESQDNDQPDYDSVASDEDTDVETRASKANRQKLQTLQSENSSLRRQATASACQVQTGSDHKDTASHSSLKRRPSARGSRPMSMYETGSGQKPYLPMGEASHPEESRTRLQPFPTHIGRSALVTSSSSLPSFPSTLSWSRDESARRASRLEKQNSTPESDYDNTACDPEPDDTGSTRKGRQRSMLWQGDGLLPDTAEPHSVPSPTLPSTEDVIRKTEQITKNIQELLRAAQENKHDSYIPCSERIHVAVTEMAALFPKKPKSDTVRTSLRLLTSSAYRLQSECRKALPGDSSLPTDVQLVTQQVIQCAYDIAKAAKQLVTITTKENSS
Take B2: the binding entry is listed as “binds”.

B3: ARF GTPase-activating protein GIT1 (protein, UniProt Q68FF6 1-770)
chain: MSRKGPRAEVCADCSAPDPGWASISRGVLVCDECCSVHRSLGRHISIVKHLRHSAWPPTLLQMVHTLASNGANSIWEHSLLDPAQVQSGRRKANPQDKVHPIKSEFIRAKYQMLAFVHKLPCRDDDGVTAKDLSKQLHSSVRTGNLETCLRLLSLGAQANFFHPEKGTTPLHVAAKAGQTLQAELLVVYGADPGSPDVNGRTPIDYARQAGHHELAERLVECQYELTDRLAFYLCGRKPDHKNGHYIIPQMADRSRQKCMSQSLDLSELAKAAKKKLQALSNRLFEELAMDVYDEVDRRENDAVWLATQNHSTLVTERSAVPFLPVNPEYSATRNQGRQKLARFNAREFATLIIDILSEAKRRQQGKSLSSPTDNLELSARSQSELDDQHDYDSVASDEDTDQEPLPSAGATRNNRARSMDSSDLSDGAVTLQEYLELKKALATSEAKVQQLMKVNSSLSDELRRLQREIHKLQAENLQLRQPPGPVPPPSLPSERAEHTLMGPGGSTHRRDRQAFSMYEPGSALKPFGGTPGDELATRLQPFHSTELEDDAIYSVHVPAGLYRIRKGVSASSVPFTPSSPLLSCSQEGSRHASKLSRHGSGADSDYENTQSGDPLLGLEGKRFLELSKEDELHPELESLDGDLDPGLPSTEDVILKTEQVTKNIQELLRAAQEFKHDSFVPCSEKIHLAVTEMASLFPKRPALEPVRSSLRLLNASAYRLQSECRKTVPPEPGAPVDFQLLTQQVIQCAYDIAKAAKQLVTITTREKKQ
As to B3, the binding entry is “binds”.

B4: ATP-dependent RNA helicase DDX42 (protein, UniProt Q810A7 1-929)
chain: MNWNKGGPGTKRGFGFGGFAISAGKKEEAKLPQQSHSAFGAASSSSGFGKSAPPQLPSFYKIGSKRANFDEENAYFEDEEEDSSNVDLPYIPAENSPTRQQFHSKPADSDSDDDPLEAFMAEVEDQAARDMKRLEEKDKERKNVKGIRDDIEEEDDQEAYFRYMAENPTAGVVQEEEEDNLEYDSDGNPIAPSKKIIDPLPPIDHSEIDYPPFEKNFYNEHEEITNLTPQQLIDLRHKLNLRVSGAAPPRPGSSFAHFGFDEQLMHQIRKSEYTQPTPIQCQGVPVALSGRDMIGIAKTGSGKTAAFIWPMLIHIMDQKELEPGDGPIAVIVCPTRELCQQIHAECKRFGKAYNLRSVAVYGGGSMWEQAKALQEGAEIVVCTPGRLIDHVKKKATNLQRVSYLVFDEADRMFDMGFEYQVRSIASHVRPDRQTLLFSATFRKKIEKLARDILIDPIRVVQGDIGEANEDVTQIVEILHSGPSKWNWLTRRLVEFTSSGSVLLFVTKKANAEELASNLKQEGHNLGLLHGDMDQSERNKVISDFKKKDIPVLVATDVAARGLDIPSIKTVINYDVARDIDTHTHRIGRTGRAGEKGVAYTLLTPKDSNFAGDLVRNLEGANQHVSKELLDLAMQNAWFRKSRFKGGKGKKLNIGGGGLGYRERPGLGSENSDRGNNNNVMSNYEAYKPSTGAMGDRLTAMKAAFQSQYKSHFVAASLSNQKAGTSSAGASGWTSAGSLNSVPTNSAQQGHNSPDNPMTSSTKNIPGFNNSGNISSAPVTYPSIGAQGVNNTASGNNSREGIGGGNGKRERYTENRGGSRHSHGDGGNRHGDGGRHGDGYRYPESGSRHTDGHRHGETRHGGSAGRHGESRGANDGRNGESRKEGFNRENKMDPKVDSSRMDKVDSKTDKTPDGFAVPEPPKRKKSRWDS
For B4, the binding entry is “binds”.
